# In the supplement of paper PMC6445147:
# This is a noisy data set.
# B1: human tRNA-Pro; a variant is named by its letters at N, in order (parent)
# chain: GGCTCGTTGGTCTAGNGGTATGATTCTCGCTTAGGGTGCGAGAGGTCCCGGGTTCNNATCCCGGACGAGCCC
# Columns and labels:
# [1] = variants of: B1; assay: tRNA Pol-III promoter activity, log2 (circRNA frequency / plasmid DNA frequency) (log2 ratio); higher = stronger promoter activity; conditions: HEK293T; construct: no Pol-II promoter ((-)CMV library)
# [2] = variants of: B1; assay: tRNA 3' processing efficiency (processed reads / all reads, maximum-likelihood estimate) (fraction); higher = more efficient 3' processing; conditions: HEK293T; construct: no Pol-II promoter ((-)CMV library)
# [3] = variants of: B1; assay: tRNA 5' processing efficiency (processed reads / all reads, maximum-likelihood estimate) (fraction); higher = more efficient 5' processing; conditions: HEK293T; construct: CMV Pol-II promoter ((+)CMV library, decapped)
Variant,tRNA Pol-III promoter activity (log2) [1],tRNA 3' processing efficiency [2],tRNA 5' processing efficiency [3]
GGCTCGTTGGTCTCGGGGTATGATTCTCGCTTAGGGTGCGAGAGGTCCCGGGTTCGAAGCCCGGACGAGCCC [GGA A14C T59G],5.21,0.42,
GGCTCGTTGGTCTGGGGGTTTGATTCTCGCTTAGGGTGCGAGAGGTCCCGGGATCGAATCCCGGACGAGCCC [GGA A14G A20T T53A],6.53,0.5,
GGCTCGTTGGTCTAGGGGTATGATTCTCGCTTAGGGTGCGAGAGGTCCCGGGTTCGAATCCCGGACGAGCCC [GGA],-1.24,0.45,0.27
GGCTCGTTGGTCTGGGGGTATGATTCTCGCTTAGGGTGCGAGAGGTCCCGGGTACGAACCCCGGACGAGCCC [GGA A14G T54A T59C],4.26,0.4,
GGCTCGTTGGTCTCGGGGTATGATTCTCGCTTAGGGTGCGAGAGGTCCCGGGATCGAATCCCGGACGAGCCC [GGA A14C T53A],3.53,0.25,
GGCTCGTTGGTCTTGGGGTATGATTCTCGCTTAGGGTGCGAGAGGTCCCGGGTTCGAATCCCGGACGAGCCC [GGA A14T],0.0348,0.19,0.25
GGCTCGTTGGTCTGGGGGTATGATTCTCGCTTAGGGTGCGAGAGGTCCCGGGTTCGAATCCCGGACGAGCCC [GGA A14G],1.28,0.4,0.13
GGCTCGTTGGTCTCGGGGTATGATTCTCGCTTAGGGTGCGAGAGGTCCCGGGTTCGAATCCCGGACGAGCCC [GGA A14C],1.84,0.13,
GGCTCGTTGGTCTGGTGGTATGATTCTCGCTTAGGGTGCGAGAGGTCCCGGGTTCGAGTCCCGGACGAGCCC [TGA A14G A58G],5.52,0.93,
GGCTCGTTGGTCTCGGGGAATGATTCTCGCTTAGGGTGCGAGAGGTCCCGGGTTCGAGTCCCGGACGAGCCC [GGA A14C T19A A58G],5.51,0.33,
GGCTCGTTGGTCTCCGGGTATGATTCTCGCTTAGGGTGCGAGAGGTCCCGGGTTCGAACCCCGGACGAGCCC [GGA A14C G15C T59C],6.53,0.5,
GGCTCGTTGGTCTTGGGGTATGATTCTCGCTTAGGGTGCGAGAGGTCCCGGGTTTGAATCCCGGACGAGCCC [GGA A14T C55T],3.55,0.3,
GGCTCGTTGGTCTTGGGGTATGATTCTCGCTTAGGGTGCGAGAGGTCCCGGGTTGGAATCCCGGACGAGCCC [GGA A14T C55G],2.74,0.14,
GGCTCGTTGGTCTGGGGGTATGATTCTCGCTTAGGGTGCGAGAGGTCCCGGGTTCGAACCCCGGACGAGCCC [GGA A14G T59C],3.62,0.25,
GGCTCGTTGGTCTTGGGGTATGATTCTCGCTTAGGGTGCGAGAGGTCCCGGGTTCGATTCCCGGACGAGCCC [GGA A14T A58T],3.59,0.2,
GGCTCGTTGGTCTGGGGGTATGATTCTCGCTTAGGGTGCGAGAGGTCCCGGGTTCGATGCCCGGACGAGCCC [GGA A14G A58T T59G],5.94,0.25,
GGCTCGTTGGTCTCTGGGTATGATTCTCGCTTAGGGTGCGAGAGGTCCCGGGTTTGAATCCCGGACGAGCCC [GGA A14C G15T C55T],7.62,0.5,
GGCTCGTTGGTCTGGGGGTATGATTCTCGCTTAGGGTGCGAGAGGTCCCGGGTTCGATTCCCGGACGAGCCC [GGA A14G A58T],5.12,0.59,

Variant,tRNA Pol-III promoter activity (log2) [1],tRNA 3' processing efficiency [2],tRNA 5' processing efficiency [3]
GGCTCGTTGGTCTTGGGGTATGATTCTCGCTTAGGGTGCGAGAGGTCCCGGGATCGAATCCCGGACGAGCCC [GGA A14T T53A],3.16,0.17,
GGCTCGTTGGTCTTGGGGTATGATTCTCGCTTAGGGTGCGAGAGGTCCCGGGGTCGAATCCCGGACGAGCCC [GGA A14T T53G],3.77,0.2,
GGCTCGTTGGTCTCGGGGTTTGATTCTCGCTTAGGGTGCGAGAGGTCCCGGGTTCGATTCCCGGACGAGCCC [GGA A14C A20T A58T],6.73,0.54,
GGCTCGTTGGTCTTGGGATATGATTCTCGCTTAGGGTGCGAGAGGTCCCGGGTTCGATTCCCGGACGAGCCC [GGA A14T G18A A58T],6.36,0.4,
GGCTCGTTGGTCTGGGGGGATGATTCTCGCTTAGGGTGCGAGAGGTCCCGGGTACGAATCCCGGACGAGCCC [GGA A14G T19G T54A],4.36,0.38,
GGCTCGTTGGTCTCGGGGTATGATTCTCGCTTAGGGTGCGAGAGGTCCCGGGTTCGAGGCCCGGACGAGCCC [GGA A14C A58G T59G],4.51,0.5,
GGCTCGTTGGTCTCGGGTTATGATTCTCGCTTAGGGTGCGAGAGGTCCCGGGGTCGAATCCCGGACGAGCCC [GGA A14C G18T T53G],5.94,0.5,
GGCTCGTTGGTCTCGGGATATGATTCTCGCTTAGGGTGCGAGAGGTCCCGGGTTCGAATCCCGGACGAGCCC [GGA A14C G18A],6.53,0.75,
GGCTCGTTGGTCTTGCGGTATGATTCTCGCTTAGGGTGCGAGAGGTCCCGGGTTCGATTCCCGGACGAGCCC [CGA A14T A58T],5.94,0.25,
GGCTCGTTGGTCTTGAGGTATGATTCTCGCTTAGGGTGCGAGAGGTCCCGGGTTTGAATCCCGGACGAGCCC [AGA A14T C55T],6.1,0.33,
GGCTCGTTGGTCTGGCGTTATGATTCTCGCTTAGGGTGCGAGAGGTCCCGGGTTGGAATCCCGGACGAGCCC [CGA A14G G18T C55G],7.64,0.31,
GGCTCGTTGGTCTGGGAGTATGATTCTCGCTTAGGGTGCGAGAGGTCCCGGGTACGAATCCCGGACGAGCCC [GGA A14G G17A T54A],5.62,0.33,
GGCTCGTTGGTCTCGGGGTTTGATTCTCGCTTAGGGTGCGAGAGGTCCCGGGTTCGAATCCCGGACGAGCCC [GGA A14C A20T],9.88,0.09,
GGCTCGTTGGTCTGGGGGTATGATTCTCGCTTAGGGTGCGAGAGGTCCCGGGTACGAATCCCGGACGAGCCC [GGA A14G T54A],2.67,0.39,
GGCTCGTTGGTCTCGGGGTATGATTCTCGCTTAGGGTGCGAGAGGTCCCGGGTTTGAATCCCGGACGAGCCC [GGA A14C C55T],3.23,0.23,
GGCTCGTTGGTCTCGGGGTATGATTCTCGCTTAGGGTGCGAGAGGTCCCGGGTTCGACTCCCGGACGAGCCC [GGA A14C A58C],4.26,0.4,
GGCTCGTTGGTCTTGGGGTATGATTCTCGCTTAGGGTGCGAGAGGTCCCGGGATCGAACCCCGGACGAGCCC [GGA A14T T53A T59C],6.64,0.69,
GGCTCGTTGGTCTTGGGGTGTGATTCTCGCTTAGGGTGCGAGAGGTCCCGGGTTTGAATCCCGGACGAGCCC [GGA A14T A20G C55T],5.59,0.79,

# Random excerpt: 2 entries already listed
Variant,tRNA Pol-III promoter activity (log2) [1],tRNA 3' processing efficiency [2],tRNA 5' processing efficiency [3]
GGCTCGTTGGTCTCGGGGTTTGATTCTCGCTTAGGGTGCGAGAGGTCCCGGGTTCGAATCCCGGACGAGCCC [GGA A14C A20T],9.88,0.09,
GGCTCGTTGGTCTGGGGGGATGATTCTCGCTTAGGGTGCGAGAGGTCCCGGGTACGAATCCCGGACGAGCCC [GGA A14G T19G T54A],4.36,0.38,
